No constants are given. Whether binding was seen depends on the method and setting. Binding seen in cells or lysates may run through a third protein. Some entries that bind do so weakly or less than the wild type. Sequences can lack the tags named with a protein.
What was measured:
[1] = target: T1, Myc-AKIP 1A (human) (UniProt Q9NQ31); assay: co-IP; cytosolic fraction of resting HEK 293 cells transfected with Myc-AKIP 1A and Flag-p65 WT; Myc immunoprecipitate blotted for Flag, and Flag immunoprecipitate blotted for Myc
T1 sequence: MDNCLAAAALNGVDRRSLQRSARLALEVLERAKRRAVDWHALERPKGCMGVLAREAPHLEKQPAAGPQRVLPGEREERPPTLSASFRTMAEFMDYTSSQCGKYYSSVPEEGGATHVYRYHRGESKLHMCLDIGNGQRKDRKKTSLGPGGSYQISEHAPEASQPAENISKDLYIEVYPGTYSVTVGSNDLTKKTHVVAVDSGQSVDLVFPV

The chains behind the UniProt entries cited, without tags or fusion partners.
UniProt Q04206: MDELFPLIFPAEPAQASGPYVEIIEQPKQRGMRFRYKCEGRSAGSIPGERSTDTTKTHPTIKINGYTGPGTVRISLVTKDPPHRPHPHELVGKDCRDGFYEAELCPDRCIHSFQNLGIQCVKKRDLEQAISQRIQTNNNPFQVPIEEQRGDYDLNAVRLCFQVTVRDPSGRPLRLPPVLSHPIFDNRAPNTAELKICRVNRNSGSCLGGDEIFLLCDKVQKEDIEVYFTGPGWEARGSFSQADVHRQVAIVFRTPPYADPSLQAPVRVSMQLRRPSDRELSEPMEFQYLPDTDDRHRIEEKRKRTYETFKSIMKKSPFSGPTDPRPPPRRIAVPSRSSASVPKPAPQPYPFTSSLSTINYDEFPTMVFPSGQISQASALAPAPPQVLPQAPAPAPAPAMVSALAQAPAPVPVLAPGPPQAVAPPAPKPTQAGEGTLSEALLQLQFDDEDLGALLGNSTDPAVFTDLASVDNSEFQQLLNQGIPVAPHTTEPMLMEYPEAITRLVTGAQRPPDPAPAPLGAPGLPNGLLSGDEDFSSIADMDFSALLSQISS
UniProt P25963: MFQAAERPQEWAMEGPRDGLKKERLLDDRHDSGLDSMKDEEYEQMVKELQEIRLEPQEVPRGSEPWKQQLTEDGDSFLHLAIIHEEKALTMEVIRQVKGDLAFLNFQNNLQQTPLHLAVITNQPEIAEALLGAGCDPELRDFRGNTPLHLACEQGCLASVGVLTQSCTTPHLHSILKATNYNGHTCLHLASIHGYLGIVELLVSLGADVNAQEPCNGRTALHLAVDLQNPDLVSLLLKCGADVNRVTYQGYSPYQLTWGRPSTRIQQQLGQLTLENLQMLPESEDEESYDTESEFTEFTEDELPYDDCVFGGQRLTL

[2] = target: T1, Myc-AKIP 1A (human); assay: co-IP; Myc-AKIP 1A immunoprecipitated from cytosolic fractions of HeLa cells, unstimulated or with 8-CPT-cAMP (50 µM); Western blot for PKAc, p65 and IκBα
[3] = target: T1, Myc-AKIP 1A (human); assay: co-IP; data not shown: cells stimulated with PMA; interaction of AKIP 1A with PKAc and p65
[4] = target: T1, Myc-AKIP 1A (human); assay: co-IP; Myc-AKIP 1A immunoprecipitated from whole cell lysates of transfected HEK 293 cells, serum starved or stimulated with 8-CPT-cAMP (50 µM) or TNFα (1 ng/ml) for 60 min; Western blot for endogenous PKAc and p65
[5] = target: Flag-p65 WT (UniProt Q04206); assay: co-IP; cytosolic fraction of resting HEK 293 cells transfected with Myc-AKIP 1A and Flag-p65 WT; Myc immunoprecipitate blotted for Flag, and Flag immunoprecipitate blotted for Myc

For Flag-p65 WT (from UniProt Q04206 1-551), the binding [1] was “binds”.

With “endogenous IκBα (from UniProt P25963 1-317)” the binding [2] was “binds”.

For “endogenous p65 subunit of NF-κB (from UniProt Q04206 1-551)”, the binding [3] was “binds”, the binding [2] was “binds” and the binding [4] was “binds”.

B1: Myc-AKIP 1A (protein, UniProt Q9NQ31 1-210)
chain: MDNCLAAAALNGVDRRSLQRSARLALEVLERAKRRAVDWHALERPKGCMGVLAREAPHLEKQPAAGPQRVLPGEREERPPTLSASFRTMAEFMDYTSSQCGKYYSSVPEEGGATHVYRYHRGESKLHMCLDIGNGQRKDRKKTSLGPGGSYQISEHAPEASQPAENISKDLYIEVYPGTYSVTVGSNDLTKKTHVVAVDSGQSVDLVFPV
For B1, the binding [5] was “binds”.
